# Laboratory results taken from EP2420245A1, “Therapeutic use of agonists or antagonists of bradykinin receptor 1 or 2, for modulation collateral blood vessel growth” (MAX-DELBRÜCK-CENTRUM FÜR MOLEKULARE MEDIZIN, priority 2010, dated 2012).
# At least one peptide structure holds a part that was inferred or is arguable (an end, a ring closure or a residue).
# Columns and labels:
# [1] = tested on: 3-vessel occlusion (3-VO) cerebral arteriogenesis model in rat; test: 3-vessel occlusion (3-VO) cerebral arteriogenesis model: collateral growth / diameter of the posterior cerebral artery (postmortem latex perfusion); format: in vivo; settings: for cerebral arteriogenesis: rat 3-VO model, BR1 agonist treatment, 1 week post 3-VO (Figure 6)
# Method: Pharmacological modulation of arteriogenesis was analysed using a 3 vessel occlusion (3-VO) model for cerebral arteriogenesis in the rat (Occlusion of both vertebral arteries and one carotid artery). Upon occlusion of three of four blood-supplying arteries to the brain, blood flow is redistributed by the recruitment of collateral pathways such as the posterior cerebral artery to supply the hypoperfusion area with blood. The 3-VO model in the rat has been established since 2003 and is acknowledged as a hypoperfusion model for testing cerebral arteriogenesis (Busch, Buschmann et al. 2003). By using the 3-VO model, relevant therapeutic stimulation of arteriogenesis was shown for instance by the application of GM-CSF (Buschmann, Circulation 2003).
# Either by inhibition or stimulation of the bradykinin receptor signalling pathways, arteriogenesis was determined and physiological parameters of the brain were tested.
# The characterisation of arteriogenesis was carried out via measurement of the artery or blood vessel diameter (posterior cerebral artery - PCA) in addition to via a measurement of the cerebrovascular reactivity (perfusion reserves in the brain). Cerebrovascular anatomy was studied after maximal vasodilation by a modification of the postmortem latex perfusion method of Maeda et al (Maeda, Hata et al. 1998) .
# [2] = tested on: 3-vessel occlusion (3-VO) cerebral arteriogenesis model in rat; test: 3-VO cerebral arteriogenesis model: cerebrovascular reactivity (acetazolamide challenge, laser-doppler blood flow); format: in vivo; settings: 1 week post 3-VO plus agonist treatment (Figure 6D)
# [3] = tested on: Bradykinin receptor 1; settings: cited from earlier work
compound,measurement,setting,value
"CNCC(=O)N[C@@H](CCCNC(=N)N)C(=O)N1CCC[C@H]1C(=O)N1CCC[C@H]1C(=O)NCC(=O)N[C@@H](Cc1ccccc1)C(=O)N[C@@H](CO)C(=O)N1CCC[C@H]1C(=O)N[C@H](Cc1ccccc1)C(=O)O [R838, Sar-[D-Phe]des-Arg^9-bradykinin]",cerebral arteriogenesis,[1],stimulated therapeutically
same,cerebral arteriogenesis,[1]; listed as Sar[DPhe8]desArg-bradykinin,therapeutically enhanced
same,diameter of the posterior cerebral artery (PCA),"[1]; seven days after 3-VO, versus untreated rats after 3-VO (Figure 6B,C)",significantly greater
same,CVR (cerebrovascular reactivity),[2],significantly increased
same,"potency, fold less relative to the natural ligand Lys-desArg-bradykinin",[3],~2 fold
